Some of these results come from one statement about several compounds together. At least one compound was matched to its structure with a doubt left.
Experiment: Fluorescence response to various ROS (H2O2 selectivity)
Details: 20 mM HEPES, pH 7, 25° C.
Protocol: (§1) FIG. 7 is the fluorescence response of 5 μM PF1 to various ROS (10 mM O2^−, 100 μM for all other ROS). .OH and .Ot-Bu were generated by reaction of Fe^2+ with H2O2 or tert-butyl hydroperoxide (TBHP), respectively. NO was delivered using S-nitrosocysteine (SNOC). Spectra were acquired in 20 mM HEPES, pH 7, and all data were obtained after incubation with the appropriate ROS at 25° C. for 1 h. Collected emission was integrated between 460 and 700 nm (λexc=450 nm).
FIG. 8 is the fluorescence response of 5 μM PR1 to various ROS (10 mM O2^−, 100 μM for all other ROS). .OH and .O^tBu were generated by reaction of Fe^2+ with H2O2 or tert-butyl hydroperoxide (TBHP), respectively. NO was delivered using S-nitrosocysteine (SNOC). Spectra were acquired in 20 mM HEPES, pH 7, and all data were obtained after incubation with the appropriate ROS at 25° C. for 30 min. Collected emission was integrated between 570 and 800 nm (λexc=560 nm).
as §1, with “FIG. 9” for “FIG. 7”, “of 10” for “of 5”, “μM PX1” for “μM PF1”, “between 370” for “between 460”, “and 600” for “and 700”, “nm (λexc=350” for “nm (λexc=450”
Millipore water was used to prepare all aqueous solutions. All spectroscopic measurements were performed in 20 mM HEPES buffer, pH 7. Absorption spectra were recorded using a Varian Cary 50 spectrophotometer (Walnut Creek, Calif.). Fluorescence spectra were recorded using a Photon Technology International Quanta Master 4 L-format scanning spectrofluorometer (Lawrenceville, N.J.) equipped with an LPS-220B 75-W xenon lamp and power supply, A-1010B lamp housing with integrated igniter, switchable 814 photon-counting/analog photomultiplier detection unit, and MD5020 motor driver. Samples for absorption and fluorescence measurements were contained in 1-cm×1-cm quartz cuvettes (1.4- or 3.5-mL volume, Starna, Atascadero, Calif.).
FIG. 7, FIG. 8 and FIG. 9 compare the relative reactivities of boronate-based PF1, PR1, and PX1, respectively, toward various ROS.

CC1(C)OB(c2ccc3c(=O)c4ccc(B5OC(C)(C)C(C)(C)O5)cc4oc3c2)OC1(C)C [PX1, 3,6-Bis(pinacolatoboron)xanthone]
higher response for H2O2 over .OH (100 μM ROS, .OH from Fe2+ with H2O2): > 500 fold | higher response for H2O2 over .OtBu (100 μM ROS, .OtBu from Fe2+ with TBHP): > 500 fold | higher response for H2O2 over −OCl (100 μM ROS): > 25 fold | higher response for H2O2 over O2− (10 mM O2−, 100 μM H2O2): > 500 fold

From patent US7842823B2, “Fluorogenic probes for reactive oxygen species” (The Regents of the University of California, priority 2005, dated 2010)
